Source: the ROBIN nucleic acid binder screens (doi:10.1002/anie.202211358).

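Each compound is printed as two spots on a slide made to bind it covalently, so it has no test concentration; the read-out is fluorescence of the bound, labelled oligonucleotide. For the PreQ1, TPP and SAM-II riboswitches the laboratory earlier reported (doi:10.1038/s41467-019-09493-3) 1 µM RNA, 2 h, and a rule that included a mean Z-score above 3 (spot signal-to-noise against the whole library), a score well above that on a control array, and duplicate spots agreeing (coefficient of variation under 100). The data file gives only the calls; its cut-offs may differ, and compounds hitting several targets are kept. These are primary screening calls, not affinities; a compound without a hit may have attached poorly or may still bind in solution.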
“active” means called a hit, “inactive” means screened and not called a hit.
Compounds were drawn at random from those tested, without regard to their results.
A target missing from an entry has no call listed here.

Targets, with sequences 5′ to 3′:
T1: TPP riboswitch RNA three-way junction, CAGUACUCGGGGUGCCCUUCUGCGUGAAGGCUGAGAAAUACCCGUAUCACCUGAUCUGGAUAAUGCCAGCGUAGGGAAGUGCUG. About 24,000 compounds screened, about 160 hits.
T2: SAM-II riboswitch RNA pseudoknot, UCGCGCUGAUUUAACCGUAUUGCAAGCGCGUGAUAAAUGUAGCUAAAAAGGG. About 21,000 compounds screened, about 200 hits.
T3: PreQ1 riboswitch RNA pseudoknot, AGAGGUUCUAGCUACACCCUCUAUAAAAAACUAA. From B. subtilis. About 24,000 compounds screened, about 170 hits.

For O=C(NCC(F)F)C1(Oc2ccc(Cl)cc2)CCNCC1 the calls were T1: inactive; T2: inactive; T3: inactive.
For CCCCCCCNC1=CC(=O)CC(c2ccccc2)C1 (stereo not drawn) the calls were T1: inactive; T2: inactive; T3: inactive.
For CCN(CC)S(=O)(=O)c1ccc(Nc2ncnc3c2nc2n3CCCCC2)cc1 the calls were T1: inactive; T3: inactive.
For O=C(NCc1cc2n(n1)CCCNC2)c1ccc(-c2cccc(F)c2)nc1 the calls were T1: inactive; T2: inactive; T3: inactive.
For C=C[C@@H]1CN2CCC1C[C@H]2[C@H](O)c1ccnc2ccc(OC)cc12 (stereo partly drawn) the calls were T1: inactive; T2: inactive; T3: inactive.
For CCOc1ccccc1OCCNC(C)Cc1ccc(OC)c(S(N)(=O)=O)c1 (stereo not drawn) the calls were T1: inactive; T2: inactive; T3: inactive.
For CCOC(=O)c1cccc(Nc2ncnc3ccccc23)c1 the calls were T1: inactive; T2: inactive; T3: inactive.
For N#CC(C(=O)c1ccc(Cl)cc1Cl)=C1NC(=O)c2ccc(Cl)cc2N1 the calls were T1: inactive; T2: inactive; T3: inactive.
For C=CCN(CC=C)C(=O)c1sc2nc(C)c(Cl)c(C)c2c1N the calls were T1: inactive; T2: inactive; T3: inactive.
For CCCn1cnnc1CNC1CCN(c2ncnc3c(C)csc23)CC1 the calls were T1: inactive; T2: inactive; T3: inactive.
For CCC(C)CCCCC(=O)N[C@@H](CCN)C(=O)NC(C(=O)N[C@H](CCN)C(=O)N[C@@H]1CCNC(=O)C([C@@H](C)O)NC(=O)[C@@H](CCN)NC(=O)[C@@H](CCN)NC(=O)[C@@H](CC(C)C)NC(=O)[C@H](Cc2ccccc2)NC(=O)[C@H](CCN)NC1=O)[C@@H](C)O (stereo partly drawn) the calls were T1: active; T2: inactive; T3: inactive.
For CCN(Cc1ccccc1)C(=O)c1ccc(CNc2c(N3CCOCC3)c(=O)c2=O)cc1 the calls were T1: inactive; T3: inactive.
For CC(Nc1ncnc2ccccc12)C(=O)O (stereo not drawn) the calls were T1: inactive; T2: inactive; T3: inactive.
For COC(C)(C)CC(C)NC1CCN(c2cccc(C)c2)CC1 (stereo not drawn) the calls were T1: inactive; T2: inactive; T3: inactive.
For CCOC(=O)N1CCC(N2C(=O)c3ccccc3C2Nc2cc(Cl)c(OC)cc2OC)CC1 (stereo not drawn) the calls were T1: inactive; T2: inactive; T3: inactive.
For CCSCCc1nc(C2CCCC2)nn1CCO the calls were T1: inactive; T2: inactive; T3: inactive.
For CN1C[C@H](NC(=O)C2(S(=O)(=O)c3ccccc3)CC2)C[C@H]1CO the calls were T1: inactive; T2: inactive; T3: inactive.
For COC(=O)c1ccc2nc(C)cc(Nc3cccc(Cl)c3)c2c1 the calls were T1: inactive; T2: inactive; T3: inactive.
For Cc1cc2c(c(=O)o1)C1(C(=O)Nc3ccccc31)C(C(=O)OCc1ccccc1)=C(N)O2 (stereo not drawn) the calls were T1: inactive; T2: inactive; T3: inactive.
For COC(=O)c1nnn(CC(=O)Nc2cccc(Cl)c2C)c1N the calls were T1: inactive; T2: inactive; T3: inactive.

2 of the entries, repeated:

{"structure": "O=C(NCC(F)F)C1(Oc2ccc(Cl)cc2)CCNCC1", "T1": "inactive", "T2": "inactive", "T3": "inactive"}
{"structure": "CCCn1cnnc1CNC1CCN(c2ncnc3c(C)csc23)CC1", "T1": "inactive", "T2": "inactive", "T3": "inactive"}